In the supplement of paper PMC12067093, “Discovery and optimisation of a covalent ligand for TRIM25 and its application to targeted protein ubiquitination” (Chemical Science, 2025):
The list shows a part of the results.

Chains of the proteins cited; added tags and fusions are not shown. Lines headed by an entry give the natural chain unless they say otherwise; changes in a name come on top.
UniProt Q9HAU5: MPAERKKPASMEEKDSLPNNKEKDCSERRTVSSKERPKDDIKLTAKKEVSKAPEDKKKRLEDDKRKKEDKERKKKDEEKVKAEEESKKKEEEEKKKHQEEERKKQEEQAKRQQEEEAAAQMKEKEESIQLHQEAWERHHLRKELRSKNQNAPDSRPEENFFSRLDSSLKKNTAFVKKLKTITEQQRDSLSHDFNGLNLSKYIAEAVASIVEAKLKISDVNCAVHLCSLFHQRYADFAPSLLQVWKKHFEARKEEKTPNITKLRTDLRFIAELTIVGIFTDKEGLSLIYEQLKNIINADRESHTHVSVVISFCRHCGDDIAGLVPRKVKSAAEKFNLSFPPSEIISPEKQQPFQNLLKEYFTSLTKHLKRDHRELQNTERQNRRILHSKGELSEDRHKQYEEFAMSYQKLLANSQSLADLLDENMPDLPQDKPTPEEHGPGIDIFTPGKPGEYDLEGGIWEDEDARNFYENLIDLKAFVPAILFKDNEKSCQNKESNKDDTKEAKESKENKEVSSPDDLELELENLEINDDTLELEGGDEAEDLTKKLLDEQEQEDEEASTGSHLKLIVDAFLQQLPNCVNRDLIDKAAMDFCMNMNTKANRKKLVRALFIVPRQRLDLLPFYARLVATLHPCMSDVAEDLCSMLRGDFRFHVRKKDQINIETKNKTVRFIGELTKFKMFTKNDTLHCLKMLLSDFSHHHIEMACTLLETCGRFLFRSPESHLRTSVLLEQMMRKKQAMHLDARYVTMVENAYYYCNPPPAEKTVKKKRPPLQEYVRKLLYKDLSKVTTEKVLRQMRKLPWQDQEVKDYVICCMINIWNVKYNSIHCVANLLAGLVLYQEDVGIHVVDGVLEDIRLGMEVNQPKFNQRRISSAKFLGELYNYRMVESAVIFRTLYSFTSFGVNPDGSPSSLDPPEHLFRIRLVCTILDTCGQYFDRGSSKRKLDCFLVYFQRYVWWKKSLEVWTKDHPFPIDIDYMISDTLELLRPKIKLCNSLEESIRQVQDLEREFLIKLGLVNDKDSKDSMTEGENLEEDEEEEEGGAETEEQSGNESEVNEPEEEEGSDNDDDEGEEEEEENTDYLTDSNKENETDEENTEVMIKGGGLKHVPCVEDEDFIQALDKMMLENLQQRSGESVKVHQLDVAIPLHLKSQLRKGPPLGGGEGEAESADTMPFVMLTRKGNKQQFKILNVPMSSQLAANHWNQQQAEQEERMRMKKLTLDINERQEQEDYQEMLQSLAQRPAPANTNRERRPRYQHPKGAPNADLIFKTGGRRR
UniProt P11172: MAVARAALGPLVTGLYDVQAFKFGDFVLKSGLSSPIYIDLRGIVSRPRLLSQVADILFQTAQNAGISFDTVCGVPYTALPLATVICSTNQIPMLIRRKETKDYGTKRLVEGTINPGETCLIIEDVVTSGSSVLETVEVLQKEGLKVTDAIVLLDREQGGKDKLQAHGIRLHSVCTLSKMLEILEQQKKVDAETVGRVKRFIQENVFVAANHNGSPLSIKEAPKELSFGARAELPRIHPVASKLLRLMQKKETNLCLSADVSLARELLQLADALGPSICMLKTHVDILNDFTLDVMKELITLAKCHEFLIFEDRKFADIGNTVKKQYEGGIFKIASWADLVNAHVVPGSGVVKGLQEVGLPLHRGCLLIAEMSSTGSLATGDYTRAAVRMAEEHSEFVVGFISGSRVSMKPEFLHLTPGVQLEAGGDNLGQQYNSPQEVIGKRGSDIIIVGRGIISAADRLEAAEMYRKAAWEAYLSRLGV
UniProt Q8N806: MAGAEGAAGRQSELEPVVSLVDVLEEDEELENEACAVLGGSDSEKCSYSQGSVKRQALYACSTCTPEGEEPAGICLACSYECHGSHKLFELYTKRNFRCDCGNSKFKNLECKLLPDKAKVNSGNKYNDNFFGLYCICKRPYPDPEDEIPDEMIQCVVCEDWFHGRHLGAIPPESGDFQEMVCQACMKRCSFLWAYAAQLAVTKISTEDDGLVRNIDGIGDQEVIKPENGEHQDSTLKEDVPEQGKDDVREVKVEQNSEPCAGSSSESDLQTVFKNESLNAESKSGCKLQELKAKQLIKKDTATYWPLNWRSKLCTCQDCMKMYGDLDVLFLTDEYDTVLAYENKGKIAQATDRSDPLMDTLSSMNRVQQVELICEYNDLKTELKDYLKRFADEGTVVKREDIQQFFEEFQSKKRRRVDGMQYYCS
UniProt Q9NYU2: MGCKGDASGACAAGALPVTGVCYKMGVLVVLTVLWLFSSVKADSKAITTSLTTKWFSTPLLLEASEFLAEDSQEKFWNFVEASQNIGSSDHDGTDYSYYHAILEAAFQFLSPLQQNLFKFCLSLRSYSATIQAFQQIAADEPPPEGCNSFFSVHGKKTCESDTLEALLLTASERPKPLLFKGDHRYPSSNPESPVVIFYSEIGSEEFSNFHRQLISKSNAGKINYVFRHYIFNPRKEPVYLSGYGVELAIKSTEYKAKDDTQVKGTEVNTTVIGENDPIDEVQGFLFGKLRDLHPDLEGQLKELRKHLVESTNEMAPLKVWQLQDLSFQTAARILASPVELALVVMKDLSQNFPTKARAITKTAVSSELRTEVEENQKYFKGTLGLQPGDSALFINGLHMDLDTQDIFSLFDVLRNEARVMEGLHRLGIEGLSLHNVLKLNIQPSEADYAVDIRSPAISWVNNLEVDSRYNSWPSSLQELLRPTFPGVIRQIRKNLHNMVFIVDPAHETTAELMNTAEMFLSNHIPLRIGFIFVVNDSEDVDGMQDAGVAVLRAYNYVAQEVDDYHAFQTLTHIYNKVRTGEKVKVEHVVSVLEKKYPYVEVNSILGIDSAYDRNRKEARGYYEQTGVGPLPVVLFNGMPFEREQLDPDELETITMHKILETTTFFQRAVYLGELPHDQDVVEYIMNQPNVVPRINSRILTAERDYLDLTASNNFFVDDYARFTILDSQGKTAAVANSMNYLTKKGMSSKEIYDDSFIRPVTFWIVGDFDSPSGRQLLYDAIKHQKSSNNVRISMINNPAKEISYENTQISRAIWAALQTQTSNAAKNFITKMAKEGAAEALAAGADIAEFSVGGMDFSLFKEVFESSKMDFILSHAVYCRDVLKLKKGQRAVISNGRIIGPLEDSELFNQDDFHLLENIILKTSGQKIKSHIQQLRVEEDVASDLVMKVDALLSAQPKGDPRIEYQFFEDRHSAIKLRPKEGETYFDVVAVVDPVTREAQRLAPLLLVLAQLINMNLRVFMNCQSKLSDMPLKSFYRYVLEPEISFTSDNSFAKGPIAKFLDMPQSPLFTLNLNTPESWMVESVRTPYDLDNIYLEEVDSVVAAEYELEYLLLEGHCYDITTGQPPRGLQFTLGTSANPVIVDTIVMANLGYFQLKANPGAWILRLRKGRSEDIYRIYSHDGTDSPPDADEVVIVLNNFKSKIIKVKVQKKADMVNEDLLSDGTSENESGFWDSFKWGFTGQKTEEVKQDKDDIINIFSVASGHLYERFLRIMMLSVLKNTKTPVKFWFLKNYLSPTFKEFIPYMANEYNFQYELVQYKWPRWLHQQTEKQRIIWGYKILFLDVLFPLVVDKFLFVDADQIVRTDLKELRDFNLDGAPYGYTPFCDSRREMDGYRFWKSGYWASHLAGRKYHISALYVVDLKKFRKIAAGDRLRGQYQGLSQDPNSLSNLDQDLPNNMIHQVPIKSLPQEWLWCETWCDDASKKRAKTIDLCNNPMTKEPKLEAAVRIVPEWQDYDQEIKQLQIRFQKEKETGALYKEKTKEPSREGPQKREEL
UniProt Q6PHR2: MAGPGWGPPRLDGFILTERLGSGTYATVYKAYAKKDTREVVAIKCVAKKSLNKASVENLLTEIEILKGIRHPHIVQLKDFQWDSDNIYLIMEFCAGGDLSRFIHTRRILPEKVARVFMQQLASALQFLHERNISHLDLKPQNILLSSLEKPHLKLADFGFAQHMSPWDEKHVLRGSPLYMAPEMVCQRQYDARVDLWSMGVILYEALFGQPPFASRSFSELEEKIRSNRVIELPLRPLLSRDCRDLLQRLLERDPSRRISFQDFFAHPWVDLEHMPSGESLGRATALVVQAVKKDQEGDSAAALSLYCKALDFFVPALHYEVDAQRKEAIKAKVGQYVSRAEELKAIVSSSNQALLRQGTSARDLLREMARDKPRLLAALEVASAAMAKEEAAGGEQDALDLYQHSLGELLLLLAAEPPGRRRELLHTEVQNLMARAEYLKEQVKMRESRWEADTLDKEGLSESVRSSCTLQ
UniProt Q04323: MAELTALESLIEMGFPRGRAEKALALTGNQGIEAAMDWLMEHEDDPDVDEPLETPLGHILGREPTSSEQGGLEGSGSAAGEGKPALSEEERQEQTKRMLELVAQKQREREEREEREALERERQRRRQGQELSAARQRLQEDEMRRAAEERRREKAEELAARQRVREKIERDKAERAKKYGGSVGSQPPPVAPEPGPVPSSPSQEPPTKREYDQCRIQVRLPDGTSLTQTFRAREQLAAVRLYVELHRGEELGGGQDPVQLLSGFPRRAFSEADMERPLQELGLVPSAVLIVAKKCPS
UniProt Q9Y5T5, whole entry, looked up: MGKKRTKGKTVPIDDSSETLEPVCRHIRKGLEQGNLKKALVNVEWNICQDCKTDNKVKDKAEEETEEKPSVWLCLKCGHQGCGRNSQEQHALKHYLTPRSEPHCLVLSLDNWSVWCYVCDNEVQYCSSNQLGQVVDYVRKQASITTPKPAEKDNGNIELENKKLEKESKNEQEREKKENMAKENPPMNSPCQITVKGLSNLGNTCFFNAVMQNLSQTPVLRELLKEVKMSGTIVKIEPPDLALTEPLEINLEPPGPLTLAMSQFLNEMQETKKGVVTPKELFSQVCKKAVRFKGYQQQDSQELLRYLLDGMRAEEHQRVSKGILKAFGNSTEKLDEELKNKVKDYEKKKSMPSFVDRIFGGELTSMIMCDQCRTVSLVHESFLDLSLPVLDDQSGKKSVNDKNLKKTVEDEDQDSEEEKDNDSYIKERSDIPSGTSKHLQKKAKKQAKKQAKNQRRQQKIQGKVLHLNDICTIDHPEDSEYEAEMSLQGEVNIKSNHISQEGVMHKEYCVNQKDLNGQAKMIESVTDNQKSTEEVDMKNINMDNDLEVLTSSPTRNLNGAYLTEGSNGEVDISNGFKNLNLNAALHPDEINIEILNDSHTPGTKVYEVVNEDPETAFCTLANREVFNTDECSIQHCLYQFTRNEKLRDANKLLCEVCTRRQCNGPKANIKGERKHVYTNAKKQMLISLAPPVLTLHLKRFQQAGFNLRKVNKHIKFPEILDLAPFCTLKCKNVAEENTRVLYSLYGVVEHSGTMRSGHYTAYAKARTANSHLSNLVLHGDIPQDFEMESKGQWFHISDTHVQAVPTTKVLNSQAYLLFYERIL
UniProt Q86UV5: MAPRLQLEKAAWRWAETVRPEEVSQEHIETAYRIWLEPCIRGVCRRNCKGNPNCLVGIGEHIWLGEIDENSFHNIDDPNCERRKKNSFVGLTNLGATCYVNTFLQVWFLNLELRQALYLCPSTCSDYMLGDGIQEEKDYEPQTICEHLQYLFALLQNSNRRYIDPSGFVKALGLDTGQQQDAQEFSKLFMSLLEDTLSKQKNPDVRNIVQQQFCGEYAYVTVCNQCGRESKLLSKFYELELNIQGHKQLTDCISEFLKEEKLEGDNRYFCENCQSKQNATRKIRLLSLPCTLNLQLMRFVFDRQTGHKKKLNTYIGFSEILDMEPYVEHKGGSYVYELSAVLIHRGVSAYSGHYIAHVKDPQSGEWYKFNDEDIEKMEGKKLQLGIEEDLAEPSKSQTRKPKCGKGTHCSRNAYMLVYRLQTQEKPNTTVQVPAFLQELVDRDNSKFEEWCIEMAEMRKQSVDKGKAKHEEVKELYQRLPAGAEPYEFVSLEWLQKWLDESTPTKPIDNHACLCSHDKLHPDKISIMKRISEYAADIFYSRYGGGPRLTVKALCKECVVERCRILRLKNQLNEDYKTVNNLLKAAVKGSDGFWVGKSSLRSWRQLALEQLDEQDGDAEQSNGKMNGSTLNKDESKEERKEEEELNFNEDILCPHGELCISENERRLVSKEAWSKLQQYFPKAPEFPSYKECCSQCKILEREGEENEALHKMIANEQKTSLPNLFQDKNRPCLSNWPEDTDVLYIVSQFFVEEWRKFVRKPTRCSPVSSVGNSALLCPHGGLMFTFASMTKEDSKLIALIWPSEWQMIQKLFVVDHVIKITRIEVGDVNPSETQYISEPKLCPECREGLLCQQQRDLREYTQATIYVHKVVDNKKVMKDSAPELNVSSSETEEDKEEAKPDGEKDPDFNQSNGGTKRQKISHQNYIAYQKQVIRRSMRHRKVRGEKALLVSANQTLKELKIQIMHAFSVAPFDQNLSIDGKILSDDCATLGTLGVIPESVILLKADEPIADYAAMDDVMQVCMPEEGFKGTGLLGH

compound: Cc1cc(ccc1-c1ccccc1)C(=O)N1CCCN(CC1)C(=O)CCl [compound 10]; assay: probe-labelled cysteine peptide fold change vs DMSO (competition) (log2 fold change); higher = less target engagement (more negative = stronger competition); details: 10 µM; THP-1; incubation time: 4 h
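Note: competitive profiling in live THP-1 cells: cysteine peptides tagged with an iodoacetamide desthiobiotin (IA-DTB) probe, intensity after compound treatment relative to DMSO-treated cells.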

| Target | probe-labelled cysteine peptide fold change |
| --- | --- |
| UPF2_Q9HAU5_315_HCGDDIAGLVPR (UniProt Q9HAU5) | -0.266 |
| UMPS_P11172_174_LHSVCTLSK (UniProt P11172) | 0.07 |
| UBR7_Q8N806_319_LCTCQDCMK (UniProt Q8N806) | -0.139 |
| UGGT1_Q9NYU2_159_TCESDTLEALLLTASERPKPLLFK (UniProt Q9NYU2) | -0.247 |
| UHRF2_Q96PU4_42_VWALFDVRPECQR (UniProt Q96PU4) | -0.064 |
| USP34_Q70CQ2_3118_SNIRPPRPELNMCLLPTMVETSK (UniProt Q70CQ2) | 0.146 |
| UPF2_Q9HAU5_641_LVATLHPCMSDVAEDLCSMLR (UniProt Q9HAU5) | 0.128 |
| ULK3_Q6PHR2_186_GSPLYMAPEMVCQR (UniProt Q6PHR2) | -0.31 |
| USP4_Q13107_649_QPLPDEFGSSPLEPGACNGSR (UniProt Q13107) | -0.383 |
| USP5_P45974_838_VCASEKPPK (UniProt P45974) | -0.108 |
| UPF2_Q9HAU5_632+641_LVATLHPCMSDVAEDLCSMLR (UniProt Q9HAU5) | 0.128 |
| UBXN1_Q04323_214_EYDQCR (UniProt Q04323) | 0.15 |
| USP16_Q9Y5T5_726_HIKFPEILDLAPFCTLK (UniProt Q9Y5T5) | -0.238 |
| URB2_Q14146_478_LFEEVLGVICRPAAEALR (UniProt Q14146) | 0.177 |
| USP11_P51784_468+471_STLVCPDCGNVSVTFDPFCYLSVPLPISHKR (UniProt P51784) | -0.107 |
| USP48_Q86UV5_652+658_KEEEELNFNEDILCPHGELCISENERR (UniProt Q86UV5) | -0.493 |
